The values below come from the supplement of paper PMC7666118.

Protein sequences, listed by entry. Tags and fused reporters are not part of them. Lines headed by an entry give the natural chain unless they say otherwise; changes in a name come on top.
UniProt Q9H4L7: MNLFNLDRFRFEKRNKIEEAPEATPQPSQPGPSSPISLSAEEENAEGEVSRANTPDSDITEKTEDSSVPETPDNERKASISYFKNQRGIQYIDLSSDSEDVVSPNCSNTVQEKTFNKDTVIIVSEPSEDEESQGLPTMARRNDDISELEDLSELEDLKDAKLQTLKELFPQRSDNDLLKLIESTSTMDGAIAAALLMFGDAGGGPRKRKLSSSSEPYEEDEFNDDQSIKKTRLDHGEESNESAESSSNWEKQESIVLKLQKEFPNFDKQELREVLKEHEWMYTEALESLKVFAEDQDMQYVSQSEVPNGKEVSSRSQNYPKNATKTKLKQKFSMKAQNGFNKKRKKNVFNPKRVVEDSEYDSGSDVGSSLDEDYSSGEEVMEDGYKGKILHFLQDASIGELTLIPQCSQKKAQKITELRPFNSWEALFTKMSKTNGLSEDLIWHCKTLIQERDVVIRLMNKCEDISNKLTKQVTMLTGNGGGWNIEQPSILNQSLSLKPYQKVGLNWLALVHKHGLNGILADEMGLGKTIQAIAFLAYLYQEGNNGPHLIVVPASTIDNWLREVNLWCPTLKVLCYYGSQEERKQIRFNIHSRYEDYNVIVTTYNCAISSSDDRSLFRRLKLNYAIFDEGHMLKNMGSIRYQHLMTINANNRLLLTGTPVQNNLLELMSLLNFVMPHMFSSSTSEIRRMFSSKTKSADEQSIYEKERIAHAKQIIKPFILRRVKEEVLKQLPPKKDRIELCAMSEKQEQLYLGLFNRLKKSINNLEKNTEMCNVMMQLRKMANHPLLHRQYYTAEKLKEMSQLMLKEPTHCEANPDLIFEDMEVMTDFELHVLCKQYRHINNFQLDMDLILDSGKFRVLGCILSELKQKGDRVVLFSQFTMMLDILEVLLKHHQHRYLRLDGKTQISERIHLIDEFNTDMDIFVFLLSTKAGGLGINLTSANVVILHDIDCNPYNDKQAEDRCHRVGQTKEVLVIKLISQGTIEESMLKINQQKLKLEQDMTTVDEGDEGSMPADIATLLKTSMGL
UniProt Q9Y6E0: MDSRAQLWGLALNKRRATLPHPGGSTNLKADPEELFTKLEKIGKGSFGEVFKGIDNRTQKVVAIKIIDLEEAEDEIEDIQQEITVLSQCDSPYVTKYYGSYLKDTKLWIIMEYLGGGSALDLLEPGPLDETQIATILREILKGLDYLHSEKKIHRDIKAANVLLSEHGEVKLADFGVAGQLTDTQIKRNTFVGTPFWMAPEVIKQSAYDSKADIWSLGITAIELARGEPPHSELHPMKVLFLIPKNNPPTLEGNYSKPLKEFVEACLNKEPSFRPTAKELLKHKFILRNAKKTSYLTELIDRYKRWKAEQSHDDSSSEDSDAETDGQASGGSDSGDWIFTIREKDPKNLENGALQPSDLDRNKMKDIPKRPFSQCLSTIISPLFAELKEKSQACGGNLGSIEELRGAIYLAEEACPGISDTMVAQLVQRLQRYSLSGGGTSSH
UniProt Q13033: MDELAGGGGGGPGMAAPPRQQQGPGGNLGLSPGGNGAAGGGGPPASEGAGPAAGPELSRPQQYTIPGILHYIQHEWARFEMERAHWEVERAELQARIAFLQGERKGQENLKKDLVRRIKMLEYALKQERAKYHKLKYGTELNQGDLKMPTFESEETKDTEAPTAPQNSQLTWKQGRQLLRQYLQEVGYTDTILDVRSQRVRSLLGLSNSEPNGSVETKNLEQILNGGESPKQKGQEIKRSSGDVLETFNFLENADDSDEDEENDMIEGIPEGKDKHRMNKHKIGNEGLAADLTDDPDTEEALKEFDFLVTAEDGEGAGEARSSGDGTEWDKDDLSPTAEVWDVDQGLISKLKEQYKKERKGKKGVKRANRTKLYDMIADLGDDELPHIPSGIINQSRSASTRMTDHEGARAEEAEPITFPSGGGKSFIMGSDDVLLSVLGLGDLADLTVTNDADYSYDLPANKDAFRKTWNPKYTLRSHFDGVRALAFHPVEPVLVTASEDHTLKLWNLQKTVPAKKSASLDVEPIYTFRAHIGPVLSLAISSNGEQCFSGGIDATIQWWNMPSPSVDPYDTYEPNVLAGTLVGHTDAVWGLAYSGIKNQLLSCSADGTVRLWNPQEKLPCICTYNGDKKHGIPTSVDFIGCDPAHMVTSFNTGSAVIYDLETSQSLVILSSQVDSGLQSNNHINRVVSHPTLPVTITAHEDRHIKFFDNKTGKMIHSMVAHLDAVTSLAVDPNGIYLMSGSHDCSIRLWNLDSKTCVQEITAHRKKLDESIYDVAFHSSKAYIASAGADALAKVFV
UniProt P04920: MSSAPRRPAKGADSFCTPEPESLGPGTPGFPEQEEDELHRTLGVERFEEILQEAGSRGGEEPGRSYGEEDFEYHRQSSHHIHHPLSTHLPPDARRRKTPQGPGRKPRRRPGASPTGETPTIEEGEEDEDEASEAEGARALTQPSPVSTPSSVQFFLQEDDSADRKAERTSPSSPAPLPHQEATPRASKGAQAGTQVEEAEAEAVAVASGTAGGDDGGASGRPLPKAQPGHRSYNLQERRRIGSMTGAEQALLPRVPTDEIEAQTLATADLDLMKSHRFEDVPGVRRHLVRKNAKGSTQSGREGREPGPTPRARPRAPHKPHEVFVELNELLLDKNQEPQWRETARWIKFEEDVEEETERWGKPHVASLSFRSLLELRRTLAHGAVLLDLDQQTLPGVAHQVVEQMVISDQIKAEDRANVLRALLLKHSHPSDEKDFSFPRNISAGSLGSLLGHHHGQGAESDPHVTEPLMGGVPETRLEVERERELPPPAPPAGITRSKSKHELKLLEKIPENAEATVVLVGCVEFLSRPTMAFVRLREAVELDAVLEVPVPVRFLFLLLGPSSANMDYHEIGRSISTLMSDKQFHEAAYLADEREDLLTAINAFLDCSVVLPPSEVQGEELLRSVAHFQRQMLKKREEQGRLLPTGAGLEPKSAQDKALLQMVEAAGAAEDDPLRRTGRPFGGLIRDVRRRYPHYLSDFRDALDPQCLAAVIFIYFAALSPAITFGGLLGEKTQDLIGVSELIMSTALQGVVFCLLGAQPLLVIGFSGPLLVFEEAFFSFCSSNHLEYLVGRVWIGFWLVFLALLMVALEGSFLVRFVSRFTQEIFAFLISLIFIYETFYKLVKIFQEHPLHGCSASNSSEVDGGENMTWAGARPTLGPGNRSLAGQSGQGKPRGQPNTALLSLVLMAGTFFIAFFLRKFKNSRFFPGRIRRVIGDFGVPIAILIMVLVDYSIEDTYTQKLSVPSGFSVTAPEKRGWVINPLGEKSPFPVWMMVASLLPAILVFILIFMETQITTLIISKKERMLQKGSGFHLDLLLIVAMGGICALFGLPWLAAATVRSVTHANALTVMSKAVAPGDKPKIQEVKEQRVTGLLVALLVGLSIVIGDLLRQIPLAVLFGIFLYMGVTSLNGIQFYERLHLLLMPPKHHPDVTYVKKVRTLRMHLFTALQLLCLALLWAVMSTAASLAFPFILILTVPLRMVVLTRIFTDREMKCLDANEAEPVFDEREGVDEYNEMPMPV
UniProt Q9HBM1: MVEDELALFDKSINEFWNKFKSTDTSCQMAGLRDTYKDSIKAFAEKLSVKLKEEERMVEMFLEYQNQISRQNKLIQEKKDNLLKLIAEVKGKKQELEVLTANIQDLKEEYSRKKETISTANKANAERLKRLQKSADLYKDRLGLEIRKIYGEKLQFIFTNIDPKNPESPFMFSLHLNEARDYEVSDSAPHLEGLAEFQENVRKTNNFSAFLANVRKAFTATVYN
UniProt Q69YQ0: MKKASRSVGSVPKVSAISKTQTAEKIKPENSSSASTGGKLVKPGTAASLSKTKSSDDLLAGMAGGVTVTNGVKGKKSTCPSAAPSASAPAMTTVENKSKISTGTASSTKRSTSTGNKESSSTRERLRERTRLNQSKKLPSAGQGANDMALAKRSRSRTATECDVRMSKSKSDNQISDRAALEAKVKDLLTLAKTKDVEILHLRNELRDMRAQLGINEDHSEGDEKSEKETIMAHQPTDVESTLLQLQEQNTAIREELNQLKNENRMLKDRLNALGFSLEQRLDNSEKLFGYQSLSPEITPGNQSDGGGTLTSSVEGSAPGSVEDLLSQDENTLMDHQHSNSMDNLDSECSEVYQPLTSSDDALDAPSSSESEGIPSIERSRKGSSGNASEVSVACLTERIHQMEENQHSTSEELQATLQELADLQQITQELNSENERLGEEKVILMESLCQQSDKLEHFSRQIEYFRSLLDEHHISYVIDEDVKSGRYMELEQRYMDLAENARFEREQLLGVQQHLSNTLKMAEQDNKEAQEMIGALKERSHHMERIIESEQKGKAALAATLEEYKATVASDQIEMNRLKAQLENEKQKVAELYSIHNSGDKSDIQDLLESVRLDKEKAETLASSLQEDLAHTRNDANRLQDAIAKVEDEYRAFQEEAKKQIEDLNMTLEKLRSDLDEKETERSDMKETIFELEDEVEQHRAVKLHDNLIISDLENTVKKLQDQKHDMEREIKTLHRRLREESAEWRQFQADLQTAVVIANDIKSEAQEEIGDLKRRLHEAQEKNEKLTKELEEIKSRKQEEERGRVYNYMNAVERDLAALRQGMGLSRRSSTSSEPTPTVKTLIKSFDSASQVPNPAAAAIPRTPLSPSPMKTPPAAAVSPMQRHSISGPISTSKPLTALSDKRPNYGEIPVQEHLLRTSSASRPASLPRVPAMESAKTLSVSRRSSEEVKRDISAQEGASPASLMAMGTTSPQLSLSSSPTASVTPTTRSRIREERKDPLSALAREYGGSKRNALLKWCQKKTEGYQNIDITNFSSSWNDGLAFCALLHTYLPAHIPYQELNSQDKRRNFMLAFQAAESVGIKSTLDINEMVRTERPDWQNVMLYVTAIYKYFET

This is one part of the list.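 The calls were made as follows: active = dose-dependent thermal stabilisation significant by F-test of dose-response against flat model at 10% FDR; inactive = not significant.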

Compound in the assay: Nc1nc2c(ncn2[C@@H]2O[C@H](COP(=O)(O)OP(=O)(O)OP(=O)(O)O)[C@@H](O)[C@H]2O)c(=O)[nH]1
Nature of the assay: dose-dependent thermal stabilisation call (2D-TPP, DLPTP, 10% FDR) (binary (1 = stabilised)); higher = stabilised by the compound. As to conditions: system: Jurkat gel-filtered lysate; concentration range 1-500 µM.
For the target SNRNP200 (UniProt O75643), the “dose-dependent thermal stabilisation call” value was inactive: 0.

As to SMARCAD1 (UniProt Q9H4L7), the “dose-dependent thermal stabilisation call” value is inactive: 0.

In the case of STK24 (UniProt Q9Y6E0), the “dose-dependent thermal stabilisation call” value is inactive: 0.

SPATA33 (UniProt Q96N06): the “dose-dependent thermal stabilisation call” value was inactive: 0.

On to STRN3 (UniProt Q13033), for which the “dose-dependent thermal stabilisation call” value was active: 1.

Turning to SLC4A2 (UniProt P04920), the “dose-dependent thermal stabilisation call” value was inactive: 0.

With SUPT5H (UniProt O00267), the “dose-dependent thermal stabilisation call” value is inactive: 0.

Regarding SPC25 (UniProt Q9HBM1), the “dose-dependent thermal stabilisation call” value is inactive: 0.

Take SPECC1L (UniProt Q69YQ0): the “dose-dependent thermal stabilisation call” value was inactive: 0.
